# In the supplement of paper PMC9135407:
# “And” between values parts separate entries of the source, which are not always exact repeats. Equal values may be shown once. Where a name gives a salt, the structure may show the parent alone. ± gives the standard deviation of the averaged measurements. This is one part of the list. Plates or batches differ in their baseline, so values are only roughly comparable.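 Assay uses culture-activated primary human stellate myofibroblasts; lipid droplet recovery indicates inactivation. Measured: proportion of Hoechst-counted cells over a plate-specific Bodipy cutoff, duplicate wells, DMSO and nortriptyline as per-plate negative and positive controls. A hit scores, control-normalized, above the plate's top-tenth-percentile nortriptyline wells or ranks among its three best wells. Final well concentrations not reported.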
# System: primary human hepatic stellate cells (donor 1)
# Assay: percent Bodipy-positive cells; higher = more lipid droplet accumulation
# Settings: 48 h
# [1] = library stock concentration: 3.33 mM
# [2] = library stock concentration: 6.3 mM
# [3] = library stock concentration: 10 mM
# [4] = library stock concentration: 1 mM
# [5] = library stock concentration: 80 uM
# [6] = library stock concentration: 400 uM
# [7] = library stock concentration: 2 mM
smiles,measurement,setting,value
COC(=O)Nc1nc2cc([S+]([O-])c3ccccc3)ccc2[nH]1 (centres undefined) [Oxfendazole],percent Bodipy-positive cells,[1],6.59 ± 2.9%
same,percent Bodipy-positive cells,[2],5.95% and 8.24%
same,percent Bodipy-positive cells,[3],19.3% and 38.6%
CCCCC[C@@H](O)/C=C/[C@H]1C(=O)C[C@H](O)[C@@H]1CCCCCCCO [Prostaglandin D1 Alcohol],percent Bodipy-positive cells,[4],12.8 ± 3%
C[C@@H]1C(=O)NC2=Nc3cccc(Cl)c3CN21 [Quazinone],percent Bodipy-positive cells,[3],12.4 ± 2.4%
NC1CCN(c2nc3c(cc2F)c(=O)c(C(=O)O)cn3-c2ccc(F)cc2F)C1 (centres undefined) [Tosufloxacin],percent Bodipy-positive cells,library stock concentration: 4.9 mM,5.85 ± 4.7%
NC1CCN(c2nc3c(cc2F)c(=O)c(C(=O)O)cn3-c2ccc(F)cc2F)C1 (centres undefined),percent Bodipy-positive cells,[3],44.8 ± 20%
"O=c1[nH][nH]c2nnc(-c3c(-c4ccccc4)nn4ccccc34)cc12 [ERK Inhibitor II, Negative Control]",percent Bodipy-positive cells,[1],13.55 ± 0.13%
Cn1ccc2cc3c(cc21)CCN3C(=O)Nc1cccnc1,percent Bodipy-positive cells,[3],31.9% and 11.4%
"CCCCC/C=C\CCCC/C=C\C/C=C\CCCC(=O)O [5(Z),8(Z),14(Z)-Eicosatrienoic Acid]",percent Bodipy-positive cells,[4],9.33 ± 0.5%
O=C(O)CP(=O)(O)O [Phosphonoacetic acid],percent Bodipy-positive cells,[3],13 ± 1%
C=CC(=O)Nc1cccc(Nc2nc(Nc3ccc(OCCOC)cc3)ncc2F)c1 [Spebrutinib],percent Bodipy-positive cells,[5],9.09 ± 0.91%
same,percent Bodipy-positive cells,[6],15.4 ± 9%
same,percent Bodipy-positive cells,[7],13.9 ± 2.1%
same,percent Bodipy-positive cells,[3],34.7 ± 1.1%
C=CC(=O)Nc1cccc(Nc2nc(Nc3ccc(OCCOC)cc3)ncc2F)c1,percent Bodipy-positive cells,[1],40.7 ± 7.7%
same,percent Bodipy-positive cells,[3],83.8 ± 3.4%
N#Cc1c(NC(=O)c2cccc3ccccc23)sc2c1CCCC2 [JNK Inhibitor IX],percent Bodipy-positive cells,[3],72.6 ± 7.2%
CCC(=O)Nc1cccc(Oc2nc(Nc3ccc(N4CCN(C)CC4)cc3OC)ncc2Cl)c1 [listing 1 of 2 here],percent Bodipy-positive cells,[5],10.9 ± 1.5%
same,percent Bodipy-positive cells,[6],13 ± 2.9%
same,percent Bodipy-positive cells,[7],27.2 ± 11%
same,percent Bodipy-positive cells,[1],81.9 ± 2.4%
Clc1cccc2c1CN(C1=NCCN1)C2,percent Bodipy-positive cells,[3],6.87 ± 3.1%
O=C(/C=C/c1c(C(=O)O)[nH]c2cc(Cl)cc(Cl)c12)Nc1ccccc1 [Gavestinel],percent Bodipy-positive cells,[3],7.19 ± 1.4%
Nc1ncnc2nc(-c3ccc(N4CCOCC4)nc3)cc(-c3cccc(Br)c3)c12,percent Bodipy-positive cells,[3],81.4 ± 8.5%
CCCCN(CC)c1nc(C)nc2c1c(C)cn2-c1c(C)cc(C)cc1C,percent Bodipy-positive cells,[3],48.4 ± 7.6%
N#CC(C#N)=C(N)/C(C#N)=C/c1cc(O)c(O)c(O)c1 [Tyrphostin 51],percent Bodipy-positive cells,[3],16.4 ± 2.8%
NC(CO)C(=O)NNCc1ccc(O)c(O)c1O (centres undefined) [Benserazide HCl],percent Bodipy-positive cells,[1],7.1 ± 4.2%
same,percent Bodipy-positive cells,library stock concentration: 7.8 mM,5.92 ± 0.64%
same,percent Bodipy-positive cells,[3],10.6 ± 0.35%
NC(CO)C(=O)NNCc1ccc(O)c(O)c1O (centres undefined) [Benserazide hydrochloride],percent Bodipy-positive cells,,7.96 ± 3.6%
same,percent Bodipy-positive cells,library stock concentration: 6.8 mM,1.69 ± 0.62%
CCC(=O)Nc1cccc(Oc2nc(Nc3ccc(N4CCN(C)CC4)cc3OC)ncc2Cl)c1 [listing 2 of 2 here],percent Bodipy-positive cells,[3],96.9 ± 1.9%
"Cc1cccc(C(=O)NCN2CCN(c3ccccc3C#N)CC2)c1 [PD 168,077 maleate]",percent Bodipy-positive cells,[3],17 ± 1.6%
Cc1cccc(C(=O)NCN2CCN(c3ccccc3C#N)CC2)c1,percent Bodipy-positive cells,[3],8.45 ± 0.7%
CN(C)CCCN1c2ccccc2CCc2ccccc21 [Imipramine HCl],percent Bodipy-positive cells,library stock concentration: 7.1 mM,51.13 ± 0.19%
CN(C)CCCN1c2ccccc2CCc2ccccc21,percent Bodipy-positive cells,[3],80 ± 5%
CN(C)CCCN1c2ccccc2CCc2ccccc21 [Imipramine hydrochloride],percent Bodipy-positive cells,,71.2 ± 2.9%
same,percent Bodipy-positive cells,[2],43.8 ± 2%
same,percent Bodipy-positive cells,[3],65 ± 4.6%
C[C@H]1COc2c(N3CCN(C)CC3)c(F)cc3c(=O)c(C(=O)O)cn1c23,percent Bodipy-positive cells,[3],10.5 ± 3.3%
C[C@H]1COc2c(N3CCN(C)CC3)c(F)cc3c(=O)c(C(=O)O)cn1c23 [Levofloxacin],percent Bodipy-positive cells,[1],12.4 ± 0.87%
NCCC[C@H](N)CC(=O)N[C@H]1CNC(=O)[C@H]([C@H]2C[C@H](O)NC(N)=N2)NC(=O)/C(=C/NC(N)=O)NC(=O)[C@H](CO)NC(=O)[C@H](CO)NC1=O [Viomycin sulfate],percent Bodipy-positive cells,,7.51 ± 3.1%
CCN(CC)CCCCN1c2ccccc2Oc2ccc(Cl)cc21 [10-DEBC hydrochloride],percent Bodipy-positive cells,[3],94.2 ± 6%
CCN(CC)CCCCN1c2ccccc2Oc2ccc(Cl)cc21 [Akt Inhibitor X],percent Bodipy-positive cells,[1],30.3 ± 0.51%
CCCC(=O)OCOC(=O)C1=C(C)NC(C)=C(C(=O)OC)C1c1cccc(Cl)c1Cl (centres undefined) [Clevidipine Butyrate],percent Bodipy-positive cells,[1],6.8 ± 1.9%
same,percent Bodipy-positive cells,[3],16.2 ± 1.4%
CN(C/C=C/C#CC(C)(C)C)Cc1cccc2ccccc12,percent Bodipy-positive cells,[3],13.8 ± 2.2%
CN(C/C=C/C#CC(C)(C)C)Cc1cccc2ccccc12 [Terbinafine HCl],percent Bodipy-positive cells,[1],8.68 ± 2.5%
same,percent Bodipy-positive cells,library stock concentration: 6.9 mM,10.7 ± 5.7%
same,percent Bodipy-positive cells,[3],18.8 ± 5.9%
CN(C/C=C/C#CC(C)(C)C)Cc1cccc2ccccc12 [Terbinafine hydrochloride],percent Bodipy-positive cells,library stock concentration: 6.1 mM,15.8 ± 5.6%
CN(C/C=C/C#CC(C)(C)C)Cc1cccc2ccccc12 [Terbinafine],percent Bodipy-positive cells,[1],9.86 ± 3.5%
same,percent Bodipy-positive cells,[3],11.6 ± 0.38%
CN1CCN(c2ccc(OC(F)(F)F)c(Nc3ncc4c(n3)-c3c(c(C(N)=O)nn3CCO)CC4)c2)CC1,percent Bodipy-positive cells,[5],8.457 ± 0.039%
same,percent Bodipy-positive cells,[6],6.31 ± 3%
same,percent Bodipy-positive cells,[7],16.8 ± 1.4%
same,percent Bodipy-positive cells,[1],54.7 ± 1.3%
same,percent Bodipy-positive cells,[3],81 ± 3.3%

# A section from the list above:
smiles,measurement,setting,value
C[C@H]1COc2c(N3CCN(C)CC3)c(F)cc3c(=O)c(C(=O)O)cn1c23,percent Bodipy-positive cells,[3],10.5 ± 3.3%
C[C@H]1COc2c(N3CCN(C)CC3)c(F)cc3c(=O)c(C(=O)O)cn1c23 [Levofloxacin],percent Bodipy-positive cells,[1],12.4 ± 0.87%
NCCC[C@H](N)CC(=O)N[C@H]1CNC(=O)[C@H]([C@H]2C[C@H](O)NC(N)=N2)NC(=O)/C(=C/NC(N)=O)NC(=O)[C@H](CO)NC(=O)[C@H](CO)NC1=O [Viomycin sulfate],percent Bodipy-positive cells,,7.51 ± 3.1%
CCN(CC)CCCCN1c2ccccc2Oc2ccc(Cl)cc21 [10-DEBC hydrochloride],percent Bodipy-positive cells,[3],94.2 ± 6%
CCN(CC)CCCCN1c2ccccc2Oc2ccc(Cl)cc21 [Akt Inhibitor X],percent Bodipy-positive cells,[1],30.3 ± 0.51%
CCCC(=O)OCOC(=O)C1=C(C)NC(C)=C(C(=O)OC)C1c1cccc(Cl)c1Cl (centres undefined) [Clevidipine Butyrate],percent Bodipy-positive cells,[1],6.8 ± 1.9%
same,percent Bodipy-positive cells,[3],16.2 ± 1.4%
CN(C/C=C/C#CC(C)(C)C)Cc1cccc2ccccc12,percent Bodipy-positive cells,[3],13.8 ± 2.2%
CN(C/C=C/C#CC(C)(C)C)Cc1cccc2ccccc12 [Terbinafine HCl],percent Bodipy-positive cells,[1],8.68 ± 2.5%
same,percent Bodipy-positive cells,library stock concentration: 6.9 mM,10.7 ± 5.7%
same,percent Bodipy-positive cells,[3],18.8 ± 5.9%
CN(C/C=C/C#CC(C)(C)C)Cc1cccc2ccccc12 [Terbinafine hydrochloride],percent Bodipy-positive cells,library stock concentration: 6.1 mM,15.8 ± 5.6%
CN(C/C=C/C#CC(C)(C)C)Cc1cccc2ccccc12 [Terbinafine],percent Bodipy-positive cells,[1],9.86 ± 3.5%
same,percent Bodipy-positive cells,[3],11.6 ± 0.38%
CN1CCN(c2ccc(OC(F)(F)F)c(Nc3ncc4c(n3)-c3c(c(C(N)=O)nn3CCO)CC4)c2)CC1,percent Bodipy-positive cells,[5],8.457 ± 0.039%
same,percent Bodipy-positive cells,[6],6.31 ± 3%
same,percent Bodipy-positive cells,[7],16.8 ± 1.4%
same,percent Bodipy-positive cells,[1],54.7 ± 1.3%
